Data source: PubChem BioAssay AID1259254 (NCATS, 2017)
Screen: 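Finding genes that stop cells copying their DNA twice in one cycle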 (primary screen). Cells: human HCT116 colorectal cancer cells. Reagent: single siRNA against human genes. Timing: 3 days. Measurement: 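Nuclei stained with Hoechst and imaged; cell-cycle phase assigned by DNA content; G2 share scaled per plate, non-targeting siRNA 0%, GMNN siRNA 100%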. Direction: G2 robust z-score and G2 cells, % of GMNN control: higher = more G2 cells, more excess DNA replication. Hit rule: 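An siRNA counts as active if its G2 robust z-score lies at least 5 MADs above the screen median; here such calls match roughly 38% of GMNN control or more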.
The whole screen tested about 59,000 reagents; shown is a part drawn at random. Over the whole deposit, about 1,550 (2.6%) got an active call. 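G2 share is only a proxy for re-replication; each gene was hit by three separate siRNAs, and active genes were retested.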 The numbers tell different reagents against one gene apart. Further read-outs or replicates are left out here. No sequences are given here. Not given: the amount of reagent.

For ASTE1 (asteroid structure-specific endonuclease 1) #1, how do the results read?
G2 robust z-score: -1.07; G2 cells, % of GMNN control: -4.58; call: inactive

What did the screen give for ASTE1 (asteroid structure-specific endonuclease 1) #2?
G2 robust z-score: 1.92; G2 cells, % of GMNN control: 16.5; call: inactive

For ASTE1 (asteroid structure-specific endonuclease 1) #3, how do the results read?
G2 robust z-score: 0.758; G2 cells, % of GMNN control: 8.3; call: inactive

With KLHDC4 (kelch domain containing 4) #1, what does the deposit list?
G2 robust z-score: -0.825; G2 cells, % of GMNN control: -2.84; call: inactive

For KLHDC4 (kelch domain containing 4) #2, what does the deposit list?
G2 robust z-score: -0.274; G2 cells, % of GMNN control: 1.04; call: inactive

What did the screen give for KLHDC4 (kelch domain containing 4) #3?
G2 robust z-score: 3.01; G2 cells, % of GMNN control: 24.1; call: inactive

What is on record for PGCKA1 (PDCD10 and GCKIII kinases associated 1) #1?
G2 robust z-score: -0.655; G2 cells, % of GMNN control: -1.64; call: inactive

For PGCKA1 (PDCD10 and GCKIII kinases associated 1) #2, what does the deposit list?
G2 robust z-score: 2.87; G2 cells, % of GMNN control: 23.1; call: inactive

What is on record for PGCKA1 (PDCD10 and GCKIII kinases associated 1) #3?
G2 robust z-score: 0.482; G2 cells, % of GMNN control: 6.36; call: inactive

Which result is listed for USP19 (ubiquitin specific peptidase 19) #1?
G2 robust z-score: -0.418; G2 cells, % of GMNN control: 0.023; call: inactive

For USP19 (ubiquitin specific peptidase 19) #2, what was measured?
G2 robust z-score: -0.153; G2 cells, % of GMNN control: 1.89; call: inactive

For USP19 (ubiquitin specific peptidase 19) #3, what was measured?
G2 robust z-score: -0.722; G2 cells, % of GMNN control: -2.11; call: inactive

An excerpt from the list above:
KLHDC4 (kelch domain containing 4) #1 → G2 robust z-score = -0.825; G2 cells, % of GMNN control = -2.84; call = inactive
KLHDC4 (kelch domain containing 4) #2 → G2 robust z-score = -0.274; G2 cells, % of GMNN control = 1.04; call = inactive
